What was measured:
[1] = system: E. rostratum conidia; assay: conidia growth inhibition ATP content assay (RPMI, 1536-well); format: cell-based; conditions: Exserohilum rostratum, Table S1; Inact. = no significant activity at the highest compound concentration (46 µM)
Description: (§1) Conidia and hyphae of E. rostratum were obtained as described by Richard et al., with the following modifications. Briefly, conidia were harvested from Potato Dextrose Agar (PDA) cultured media with 0.05% Tween 80, and the conidial suspension was filtered using a Cell Strainer (100 µm, BD Falcon REF 352340). After centrifugation at 700g for 10 min, the suspension was decanted and conidia were resuspended at 1×10^5 per ml in RPMI and counted in a hemocytometer. Hyphae were harvested from yeast extract peptone dextrose (YPD) culture media with 0.05% Tween 80. Hyphal fragments were sized by vortexing 15 sec twice with 0.4 mm glassbeads, and the hyphae suspension was filtered by cheese cloth twice. […]
(§2) The ATPLite assay kit, consisting of luciferase/luciferin and detergent, was used to quantitate cellular ATP levels as a marker for cell viability (Table 1). […] The assay plates were incubated at room temperature for 15 minutes before reading luminescence intensity on a ViewLux plate reader (Perkin Elmer, Waltham, MA). […]
(§3) The primary screen data and curve fitting were analyzed using software developed internally at the NIH Chemical Genomics Center (NCGC). Total signals for cellular viability (100% cellular viability) were calculated from the wells with DMSO solvent and the complete cell killing (0% cellular viability) was calculated from 46 µM amphotericin B treated wells. […]

[2] = system: E. rostratum hyphal fragments; assay: hyphal fragment fungicidal ATP content assay (PBS, 1536-well); format: cell-based; conditions: Exserohilum rostratum; Table S1; Inact. = no significant activity in the primary screen; read-out: Hyphae IC50
Description: as §1, §2, §3

[3] = system: SH-SY5Y cells; assay: SH-SY5Y cytotoxicity counter-screen (ATP content assay); format: cell-based, Human; conditions: Table S1; Inact. = no significant activity at the highest compound concentration (46 µM)
Description: Human neuroblastoma SH-SY5Y cell line (Catalog No. CRL-2266) was purchased from ATCC (Manassas, VA). SH-SY5Y cell line was cultured in 175-cm^2 tissue culture flasks (Costar, Cambridge, MA) with 30 ml of growth medium at 37°C in a 5% CO2 humidified atmosphere. Growth medium was made with Dulbecco's Modified Eagle Medium: Nutrient Mixture F-12 with 10% fetal bovine serum (FBS). Growth medium was replaced every other day and cells were passed at 75% confluence.
The ATPLite assay kit, consisting of luciferase/luciferin and detergent, was used to quantitate cellular ATP levels as a marker for cell viability (Table 1). For assay development, hyphal fragments or conidia in PBS were plated in a seeding density of 3,750, 7,500 and 15,000 cellular particles/well with a final volume of 5 µl/well using the Multidrop-Combi dispenser in white 1536-well plates. Conidia or hyphae fragments were incubated for 24 h at 37°C in a 5% CO2 humidified atmosphere. ATPLite detection reagents were added at 4 µl/well. The assay plates were incubated at room temperature for 15 minutes before reading luminescence intensity on a ViewLux plate reader (Perkin Elmer, Waltham, MA). Conidia suspended in RPMI medium were inoculated at concentrations of 62.5, 125 and 250 conidia/well with a final volume of 5 µl/well in white 1536-well plates. The conidia assay was developed and optimized in the same way as the hyphal assay. […]

Clc1ccc(COC(Cn2ccnc2)c2ccc(Cl)cc2Cl)cc1 (stereo not drawn) [Econazole nitrate]
IC50 [1]: 13.2 µM
IC50 [2]: 11.8 µM
SH-SY5Y IC50 [3]: Inact.
